Results from publication PMC6375906.
No constants are given. Whether binding was seen depends on the method and setting. Binding seen in cells or lysates may run through a third protein. Some binding calls cover weakened binding; strength is not graded here. For part of these data: Tags and fused reporters may be left off the sequences shown.

By UniProt entry, the sequences of proteins in these tests, tags left out.
UniProt P60903: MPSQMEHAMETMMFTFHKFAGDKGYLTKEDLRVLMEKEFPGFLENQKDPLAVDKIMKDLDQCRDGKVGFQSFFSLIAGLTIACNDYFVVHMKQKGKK

B1: HA-tagged α-ENaC subunit, expressed alone (protein, UniProt P37088 1-669)
chain: MEGNKLEEQDSSPPQSTPGLMKGNKREEQGLGPEPAAPQQPTAEEEALIEFHRSYRELFEFFCNNTTIHGAIRLVCSQHNRMKTAFWAVLWLCTFGMMYWQFGLLFGEYFSYPVSLNINLNSDKLVFPAVTICTLNPYRYPEIKEELEELDRITEQTLFDLYKYSSFTTLVAGSRSRRDLRGTLPHPLQRLRVPPPPHGARRARSVASSLRDNNPQVDWKDWKIGFQLCNQNKSDCFYQTYSSGVDAVREWYRFHYINILSRLPETLPSLEEDTLGNFIFACRFNQVSCNQANYSHFHHPMYGNCYTFNDKNNSNLWMSSMPGINNGLSLMLRAEQNDFIPLLSTVTGARVMVHGQDEPAFMDDGGFNLRPGVETSISMRKETLDRLGGDYGDCTKNGSDVPVENLYPSKYTQQVCIHSCFQESMIKECGCAYIFYPRPQNVEYCDYRKHSSWGYCYYKLQVDFSSDHLGCFTKCRKPCSVTSYQLSAGYSRWPSVTSQEWVFQMLSRQNNYTVNNKRNGVAKVNIFFKELNYKTNSESPSVTMVTLLSNLGSQWSLWFGSSVLSVVEMAELVFDLLVIMFLMLLRRFRSRYWSPGRGGRGAQEVASTLASSPPSHFCPHPMSLSLSQPGPAPSPALTAPPPAYATLGPRPSPGGSAGASSSTCPLGGP
B2: HA-tagged β-ENaC subunit, expressed alone (protein, UniProt P51168 1-640)
chain: MHVKKYLLKGLHRLQKGPGYTYKELLVWYCDNTNTHGPKRIICEGPKKKAMWFLLTLLFAALVCWQWGIFIRTYLSWEVSVSLSVGFKTMDFPAVTICNASPFKYSKIKHLLKDLDELMEAVLERILAPELSHANATRNLNFSIWNHTPLVLIDERNPHHPMVLDLFGDNHNGLTSSSASEKICNAHGCKMAMRLCSLNRTQCTFRNFTSATQALTEWYILQATNIFAQVPQQELVEMSYPGEQMILACLFGAEPCNYRNFTSIFYPHYGNCYIFNWGMTEKALPSANPGTEFGLKLILDIGQEDYVPFLASTAGVRLMLHEQRSYPFIRDEGIYAMSGTETSIGVLVDKLQRMGEPYSPCTVNGSEVPVQNFYSDYNTTYSIQACLRSCFQDHMIRNCNCGHYLYPLPRGEKYCNNRDFPDWAHCYSDLQMSVAQRETCIGMCKESCNDTQYKMTISMADWPSEASEDWIFHVLSQERDQSTNITLSRKGIVKLNIYFQEFNYRTIEESAANNIVWLLSNLGGQFGFWMGGSVLCLIEFGEIIIDFVWITIIKLVALAKSLRQRRAQASYAGPPPTVAELVEAHTNFGFQPDTAPRSPNTGPYPSEQALPIPGTPPPNYDSLRLQPLDVIESDSEGDAI
B3: HA-tagged γ-ENaC subunit, expressed alone (protein, UniProt P51170 1-649)
chain: MAPGEKIKAKIKKNLPVTGPQAPTIKELMRWYCLNTNTHGCRRIVVSRGRLRRLLWIGFTLTAVALILWQCALLVFSFYTVSVSIKVHFRKLDFPAVTICNINPYKYSTVRHLLADLEQETREALKSLYGFPESRKRREAESWNSVSEGKQPRFSHRIPLLIFDQDEKGKARDFFTGRKRKVGGSIIHKASNVMHIESKQVVGFQLCSNDTSDCATYTFSSGINAIQEWYKLHYMNIMAQVPLEKKINMSYSAEELLVTCFFDGVSCDARNFTLFHHPMHGNCYTFNNRENETILSTSMGGSEYGLQVILYINEEEYNPFLVSSTGAKVIIHRQDEYPFVEDVGTEIETAMVTSIGMHLTESFKLSEPYSQCTEDGSDVPIRNIYNAAYSLQICLHSCFQTKMVEKCGCAQYSQPLPPAANYCNYQQHPNWMYCYYQLHRAFVQEELGCQSVCKEACSFKEWTLTTSLAQWPSVVSEKWLLPVLTWDQGRQVNKKLNKTDLAKLLIFYKDLNQRSIMESPANSIEMLLSNFGGQLGLWMSCSVVCVIEIIEVFFIDFFSIIARRQWQKAKEWWAWKQAPPCPEAPRSPQGQDNPALDIDDDLPTFNSALHLPPALGTQVPGTPPPKYNTLRLERAFSNQLTDTQMLDEL

How the values were obtained:
p11-myc-DDK (human) [1] = molecular target: p11-myc-DDK (human) (UniProt P60903); assay: co-IP; HEK293 co-transfected with p11-myc-DDK and α-, βHA-, γ-ENaC; two sequential rounds of immunoprecipitation with anti-HA and anti-DDK; Western blot with anti-HA and anti-myc DDK
p11-myc-DDK (human) [2] = molecular target: p11-myc-DDK (human) (UniProt P60903); assay: co-IP; HEK293 co-transfected with p11-myc-DDK and α-, βHA-, γ-ENaC; lysed after 24 h in 1% Triton in TBS; mouse anti-p11 antibody and protein G-agarose; blot with anti-HA and anti-p11
[3] = molecular target: GST-p11 (p11 protein tagged with glutathione S-transferase) (UniProt P60903); assay: pull-down; 50 μg GST-p11 or GST alone on glutathione-agarose beads incubated 3 h at 4°C with COS-7 lysates containing HA-tagged ENaC (precleared with GST beads); washed with 1% Triton in PBS; anti-HA immunoblot; only the target purified

| Molecule | binding (p11-myc-DDK (human) [1]) | binding (p11-myc-DDK (human) [2]) | binding [3] |
| --- | --- | --- | --- |
| αβHAγ ENaC (α-, βHA-, and γ-ENaC co-expressed) in HEK293 cells (from UniProt P37088 1-669; P51168 1-640; P51170 1-649) (complex) | binds | binds |  |
| αβHAγ ENaC channel complex (trimeric complex of α-, βHA-, and γ-ENaC) in COS-7 cells (from UniProt P37088 1-669; P51168 1-640; P51170 1-649) |  |  | binds |
| B1 |  |  | binds |
| B2 |  |  | binds |
| B3 |  |  | binds |
